Reference: PubChem BioAssay AID330 (DTP/NCI, 2004)
The list does not hold the whole screen: it is rich in T/C values a quarter to a half above the control, in often repeated tests (any T/C) and in doses without a T/C. Further doses and runs are listed elsewhere. T/C is the treated group as % of the vehicle group. Some doses have a count of surviving animals in place of a T/C: the source holds a T/C of zero for them, seemingly a mark for toxic or unscored doses. Some survivor counts are full or nearly so, which does not show that the dose was tolerated: survival well below the control is almost never listed, so the zero probably covers shortened survival too. Survivors were counted at the toxicity check, usually on the fifth day, unless a day is given; later deaths do not show. Schedule codes are those of the source, taken here to give the interval after Q, in days (D) or hours (H), and the number of doses after X. For survival time, this PubChem deposit counts one and a half times the control or more as active, and values a quarter to a half above the control carry no call in these data; other NCI protocols may use other cut-offs. Some T/C values carry the count of animals alive at the toxicity check (mostly the fifth day); without a count, all were alive then. Some entries hold several experiments; the results are listed from low to high.

System: P388 leukemia ip, CD2F1 mice, survival T/C
Experiment: NCI In Vivo Anticancer Drug Screen. Data for tumor model P388 Leukemia (intraperitoneal) in CD2F1 (CDF1) mice
Conditions: T/C endpoint: median survival time, higher T/C = longer survival
[1] = dose: 50.0 mg/kg/injection, schedule: Q01DX009 (ip), vehicle: saline with Tween-80
[2] = dose: 100.0 mg/kg/injection, schedule: Q01DX009 (ip), vehicle: saline with Tween-80
[3] = dose: 25.0 mg/kg/injection, schedule: Q01DX009 (ip), vehicle: saline with Tween-80
[4] = dose: 200.0 mg/kg/injection, schedule: Q01DX009 (ip), vehicle: saline with Tween-80
[5] = dose: 25.0 mg/kg/injection, schedule: Q01DX009 (ip), vehicle: saline
[6] = dose: 6.25 mg/kg/injection, schedule: Q01DX009 (ip), vehicle: saline

Q: For `CCOC(=O)c1c[nH]c2ccc(N(CCCl)CCCl)cc12`, which survivor count [1] is on record?
A: 6 of 6

Q: How did the survivor count [2] turn out when `CS(=O)(=O)c1cc(C(F)(F)F)cc([N+](=O)[O-])c1Cl` was run?
A: 6 of 6

Q: With `O=C(CBr)N1c2ccccc2Sc2ccc3ccccc3c21` as the compound, how does the T/C [3] read?
A: 129 % of control [5 of 6 alive]

Q: And the T/C [1]?
A: 129 and 140 % of control

Q: And the T/C [2]?
A: 122, 133 [5 of 6 alive], 140 % of control

Q: And the survivor count [2]?
A: 6 of 6

Q: And the survivor count [4]?
A: 3 of 6

Q: And the survivor count (dose: 400.0 mg/kg/injection, schedule: Q01DX009 (ip), vehicle: saline with Tween-80)?
A: 0 of 6

Q: With `C[n+]1c(-c2cccc3ccccc23)c2cc(N)ccc2c2ccccc21` as the compound, how does the T/C (dose: 3.12 mg/kg/injection, schedule: Q01DX009 (ip), vehicle: saline) read?
A: 129 % of control

Q: What about the T/C (dose: 3.13 mg/kg/injection, schedule: Q01DX009 (ip), vehicle: water) of the same compound?
A: 128 % of control

Q: What about the T/C (dose: 5.3 mg/kg/injection, schedule: Q01DX009 (ip), vehicle: water) of the same compound?
A: 131 % of control

Q: And the T/C (dose: 6.25 mg/kg/injection, schedule: Q01DX009 (ip), vehicle: water)?
A: 132 % of control

Q: And the T/C (dose: 8.0 mg/kg/injection, schedule: Q01DX009 (ip), vehicle: water)?
A: 134 % of control

Q: And the T/C (dose: 12.5 mg/kg/injection, schedule: Q01DX009 (ip), vehicle: water)?
A: 142 % of control

Q: What about the survivor count (dose: 18.0 mg/kg/injection, schedule: Q01DX009 (ip), vehicle: water) of the same compound?
A: 6 of 6

Q: What about the survivor count [5] of the same compound?
A: 4 of 6

Q: How did the survivor count [4] turn out when `NC(=O)NN=C(C(F)(F)F)C(F)(F)F` was run?
A: 2 of 6

Q: Which survivor count (dose: 69.0 mg/kg/injection, schedule: Q01DX005 (ip), vehicle: acid diluted with saline) does the source give for `C/C=C1\CN2CCC34c5ccc(OC)cc5N(C)C3C2CC1C4C(=O)OC` (stereo not given) here?
A: 0 of 6

Q: What about the survivor count (dose: 138.0 mg/kg/injection, schedule: Q01DX005 (ip), vehicle: acid diluted with saline) of the same compound?
A: 0 of 6

Q: How did the T/C (dose: 64.0 mg/kg/injection, schedule: Q01DX009 (ip), vehicle: other) turn out when `NC(=O)C(CCO)NC(=O)OCc1ccccc1` (stereo not given) was run?
A: 133 % of control

Q: Which survivor count (dose: 200.0 mg/kg/injection, schedule: Q01DX005 (ip), vehicle: saline with Tween-80) does the source give for `CCN(CC)CCOc1ccc(Cl)c(C)c1` here?
A: 2 of 6

Q: Which survivor count (dose: 240.0 mg/kg/injection, schedule: Q01DX005 (ip), vehicle: saline with Tween-80) does the source give for `O=c1[nH]nc(-c2ccccc2)c2c(/C=C/c3ccccc3)onc12` here?
A: 6 of 6

Q: Which results are given for `CSc1ncnc2c1ncn2C1OC(CO)C(O)OC1O` (stereo not given)?
A: T/C [3]: 127 % of control; T/C (dose: 37.5 mg/kg/injection, schedule: Q01DX009 (ip), vehicle: saline with Tween-80): 136 % of control [5 of 6 alive]; T/C (dose: 100.0 mg/kg/injection, schedule: Q04DX003 (ip), vehicle: saline with Tween-80): 127 % of control; survivor count (dose: 150.0 mg/kg/injection, schedule: Q04DX003 (ip), vehicle: saline with Tween-80): 6 of 6; survivor count (dose: 200.0 mg/kg/injection, schedule: Q04DX003 (ip), vehicle: saline with Tween-80): 4 of 6

Q: `O=[N+]([O-])c1ccccc1OCC1CO1` (stereo not given) was tested. Which survivor count (dose: 200.0 mg/kg/injection, schedule: Q01DX009 (ip), vehicle: Klucel (hydroxypropylcellulose) (HPC)) did it give?
A: 4 of 6

Q: How did the survivor count [6] turn out when `CCC[CH2][Sn]([CH2]CCC)([CH2]CCC)[CH2]CC[N+](C)(C)C.CS(=O)(=O)[O-]` was run?
A: 2 of 6

Q: What about the survivor count (dose: 12.5 mg/kg/injection, schedule: Q01DX009 (ip), vehicle: saline) of the same compound?
A: 2 of 6

Q: And the survivor count [5]?
A: 0 of 6

Q: What about the survivor count (dose: 50.0 mg/kg/injection, schedule: Q01DX009 (ip), vehicle: saline) of the same compound?
A: 0 of 6

Q: What about the survivor count (dose: 100.0 mg/kg/injection, schedule: Q01DX009 (ip), vehicle: saline) of the same compound?
A: 0 of 6

Q: What about the survivor count (dose: 200.0 mg/kg/injection, schedule: Q01DX009 (ip), vehicle: saline) of the same compound?
A: 0 of 6

Q: For `BrCc1ccccc1C[P+](c1ccccc1)(c1ccccc1)c1ccccc1`, which survivor count [6] is on record?
A: 5 of 6
